Assay results as given in the supplement of paper PMC7411640.
Where a name gives a salt, the structure may show the parent alone. The list shows a part of the results. This data set is noisy: repeats of one test often differ as much as different tests do.

System: MDA-MB-468
Assay: phospho-S6 immunofluorescence (DAPI-normalised), per-plate z-score; higher = higher phospho-S6 signal (less pathway suppression)
Settings: 24 h
Method: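 GPCR-targeted compound library (MedChemExpress HY-L006) tested on MDA-MB-468 PTEN-null TNBC cells in 384-well plates at 0.1, 1 or 10 uM, combined with vehicle, GDC0941 450 nM or lapatinib 1 uM, for 24 h. Phospho-S6 (S240/244) immunofluorescence normalised to DAPI and expressed as a per-plate z-score; values are the mean of biological triplicates.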

[1] = compound 0.1 µM, co-treatment: GDC0941 450 nM
[2] = compound 0.1 µM, co-treatment: lapatinib 1 uM
[3] = compound 0.1 µM, co-treatment: vehicle
[4] = compound 1 µM, co-treatment: GDC0941 450 nM
[5] = compound 1 µM, co-treatment: lapatinib 1 uM
[6] = compound 1 µM, co-treatment: vehicle
[7] = compound 10 µM, co-treatment: GDC0941 450 nM
[8] = compound 10 µM, co-treatment: lapatinib 1 uM
[9] = compound 10 µM, co-treatment: vehicle

| SMILES | phospho-S6 immunofluorescence (z-score) [1] | phospho-S6 immunofluorescence (z-score) [2] | phospho-S6 immunofluorescence (z-score) [3] | phospho-S6 immunofluorescence (z-score) [4] | phospho-S6 immunofluorescence (z-score) [5] | phospho-S6 immunofluorescence (z-score) [6] | phospho-S6 immunofluorescence (z-score) [7] | phospho-S6 immunofluorescence (z-score) [8] | phospho-S6 immunofluorescence (z-score) [9] |
| --- | --- | --- | --- | --- | --- | --- | --- | --- | --- |
| CN1C(=O)COc2c(C(=O)NC3CN4CCC3CC4)cc(Cl)cc21 (configuration not stated) [Azasetron (hydrochloride)] | 1.62 | 0.19 | 1.24 | 3.1 | -0.19 | 0.93 | – | – | – |
| CC[N+](C)(CC)CCOC(=O)C(O)(c1ccccc1)c1ccccc1 [Methylbenactyzium Bromide] | 0.02 | -1.14 | -1.21 | -0.52 | -0.52 | -0.14 | -0.26 | -0.59 | -0.57 |
| CC(C)[C@@H](CN1CC[C@@](C)(c2cccc(O)c2)[C@@H](C)C1)NC(=O)[C@H]1Cc2ccc(O)cc2CN1 [JDTic (dihydrochloride)] | 1.99 | -0.59 | 0.54 | 1.39 | -1.35 | 0.47 | 0.26 | -2.5 | 0.81 |
| CN1CCC(C(=O)c2cccc(NC(=O)c3c(F)cc(F)cc3F)n2)CC1 [Lasmiditan (hydrochloride)] | -0.63 | 1.08 | 0.99 | -1.02 | -0.44 | -0.86 | -2.08 | -3.95 | -0.09 |
| CC(C)C[C@H](NC(=O)[C@H](Cc1ccccc1)NC(=O)CNC(=O)[C@@H](C)NC(=O)[C@@H](N)Cc1ccc(O)cc1)C(=O)O [[D-Ala2]leucine-enkephalin] | 1.7 | -0.37 | 1.67 | 0.16 | 0.5 | 0.38 | -0.29 | 0.01 | 1.34 |
